Measurements: US5851808, “Rapid subcloning using site-specific recombination” (Baylor College of Medicine)

Target: T1, Cre recombinase (UniProt P06956)
T1 sequence (looked up, limits assumed): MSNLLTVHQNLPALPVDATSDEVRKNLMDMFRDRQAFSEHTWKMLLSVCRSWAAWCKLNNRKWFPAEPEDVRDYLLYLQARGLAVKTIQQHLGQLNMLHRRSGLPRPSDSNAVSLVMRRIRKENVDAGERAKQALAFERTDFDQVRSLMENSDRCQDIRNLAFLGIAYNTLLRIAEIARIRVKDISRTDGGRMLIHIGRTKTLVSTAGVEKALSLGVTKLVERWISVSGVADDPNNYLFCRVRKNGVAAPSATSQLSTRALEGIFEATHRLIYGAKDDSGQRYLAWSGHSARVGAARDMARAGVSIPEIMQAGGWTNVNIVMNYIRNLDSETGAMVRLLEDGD
Test: activity in cells
Settings: in vivo fusion of pUNI and pHOST in QLB4 cells; multimeric fusion products; protein in cells; protein details: untagged, lac-cre in E. coli QLB4; only the site is given

ATAACTTCGTATAGCATACATTATACGAAGTTAT (double strand) [loxP wild-type]
activity on this sequence: active

Tags and fusion partners may be left off the protein sequences shown.
